# Experimental data: PubChem BioAssay AID1671195 (Yale University, 2021)
# Purpose: 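Regulators of LDL receptor activity judged by labelled LDL uptake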 (primary screen)
# System: human Huh7 hepatoma cells
# Knock-down reagent: siRNA pool against human genes, 18 nM
# Time to read-out: about 2 to 2.5 days of knockdown, then 8 h LDL uptake
# Conditions: DiI-labelled LDL at 30 µg/ml for 8 h, in lipoprotein-deficient serum medium
# Detection: 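Per-cell DiI-LDL intensity by automated imaging; well means scaled to the plate median and given as a robust z-score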
# Reading the numbers: robust z-score: higher = more LDL uptake after knockdown
# Active means: 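a gene counts as active if at least two replicate z-scores exceed ±2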
# Shown is an unselected part of about 22,000 deposited reagents. About 1,510 of all reagents (6.9%) were called active. 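Active includes knockdowns raising or lowering LDL uptake; positive z-scores mean more uptake, negative mean less.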 A number with no mark means an inactive call. Reagents against one gene are numbered here.
gene knocked down,pool no.,"robust z-score, replicate 1","robust z-score, replicate 2","robust z-score, replicate 3"
XRCC6,1,0.0206,0.113,0.242
LOC389166 (retired record),1,-0.558,-0.727,-0.998
SRPK1,1,0.864,0.859,0.903
INPP4A,1,-0.842,-0.0333,-0.329
MCUR1,1,2.75 (active),2.14,2.37
NOC2L,1,-1.17,-0.726,-0.776
RNASE9,1,0.857,0.34,0.67
TIPRL,1,-0.466,-0.518,-0.468
SPAG7,1,0.945,0.244,0.458

Targets listed so far whose target name begins with S or s:
gene knocked down,pool no.,"robust z-score, replicate 1","robust z-score, replicate 2","robust z-score, replicate 3"
SRPK1,1,0.864,0.859,0.903
SPAG7,1,0.945,0.244,0.458

The listing continues.
gene knocked down,pool no.,"robust z-score, replicate 1","robust z-score, replicate 2","robust z-score, replicate 3"
KCTD7,1,1.46,1.15,0.457
BCDIN3D,1,-0.717,-0.709,-0.49
TPRA1,1,0.961,0.338,0.593
STXBP6,1,0.127,0.604,-0.846
MAP3K4,1,-0.677,-0.875,-0.93
WSB1,1,-1.61,-0.117,-1.48
PPAN,1,-0.0561,-1.11,-0.379
CAB39L,1,-0.839,0.105,-0.474
BMF,1,-0.575,-1.76,-1.1
LOC389637 (retired record),1,-0.294,-0.323,-0.311
OR10H4,1,3.18,1.34,1.65
NUS1,1,-0.937,-0.765,-0.507
ECHS1,1,-0.923,1.52,-0.728
FMO5,1,-1.59,-0.901,-1.33
DEFB110,1,-0.539,-0.292,-0.152
DEFB110,2,-0.913,-0.932,-0.762
SOX1,1,-0.131,-0.15,-0.306
MUC5B,1,1.28,1.8,1.15
SH2D1A,1,-0.0214,0.72,0.277
